Laboratory results reported in patent publication US9387198B1 (priority 2015, dated 2016).
Some of these results come from one statement about several compounds together.

Chains of the proteins cited; added tags and fusions are not shown. Residues count along the entry.
UniProt P02768, 25-609: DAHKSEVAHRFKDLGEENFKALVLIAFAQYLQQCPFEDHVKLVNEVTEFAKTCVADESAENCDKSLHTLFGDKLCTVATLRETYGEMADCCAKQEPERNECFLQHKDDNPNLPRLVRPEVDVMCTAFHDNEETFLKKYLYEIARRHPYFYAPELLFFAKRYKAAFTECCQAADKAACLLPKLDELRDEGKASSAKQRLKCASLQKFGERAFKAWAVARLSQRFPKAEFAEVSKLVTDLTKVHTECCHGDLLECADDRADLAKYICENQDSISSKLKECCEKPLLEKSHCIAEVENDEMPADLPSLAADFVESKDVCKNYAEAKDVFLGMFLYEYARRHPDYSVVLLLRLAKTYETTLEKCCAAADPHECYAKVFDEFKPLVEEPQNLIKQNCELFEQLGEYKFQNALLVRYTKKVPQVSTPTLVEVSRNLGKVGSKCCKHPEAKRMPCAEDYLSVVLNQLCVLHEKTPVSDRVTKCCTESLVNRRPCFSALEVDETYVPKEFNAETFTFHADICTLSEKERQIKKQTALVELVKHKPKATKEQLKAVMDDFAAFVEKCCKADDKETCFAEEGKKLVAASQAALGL

These molecules were tested against T1, human serum albumin (HSA) (Homo sapiens, UniProt P02768) (assay: Fluorescence-based anti-glycation assay (fructose-mediated glycation of HSA)). Settings: compared to reference compound rutin.
T1 construct: purchased Sigma Aldrich, St. Louis, Mo., USA
Format: biochemical
Method: Prior to incubation, rutin (reference compound) and 6-nitrobenzimidazole derivatives were added to a reaction mixture to a final concentration of 1 mM. DMSO was used as a solvent (final concentration: 10%) in this assay.
Percentage Inhibition=(1−Fluorescence of test compounds/Fluorescence of glycated-HSA)×100 Where, Test compounds=6-Nitrobenzimidazole derivatives

anti-glycation activity (in words), moderate anti-glycation activity:
O=[N+]([O-])c1ccc2nc(-c3ccsc3)[nH]c2c1 [Compound 3, 6-Nitro-2-(3-thienyl)-1H-benzimidazole]
O=[N+]([O-])c1ccc2nc(-c3c(O)cc(O)cc3O)[nH]c2c1 [Compound 5, 2-(6-Nitro-1H-benzimidazol-2-yl)-1,3,5-benzenetriol]
Cc1ccc(-c2nc3ccc([N+](=O)[O-])cc3[nH]2)cc1 [Compound 8, 2-(4-Methylphenyl)-6-nitro-1H-benzimidazole]
O=[N+]([O-])c1ccc2nc(-c3ccc(O)cc3)[nH]c2c1 [Compound 10, 4-(6-Nitro-1H-benzimidazol-2-yl) phenol]
